{"source": "patent US8586613B2", "about": "“Pyridinium and quinolinium derivatives” (Universidad de Granada, priority 2004, dated 2013)", "tested_on": "Balb C mice", "conditions": "daily doses for 5 consecutive days, 9 days rest, dose entailing 50% mortality, tested form: dibromide", "note": "The structures given here were assigned with low confidence; some may be wrong.", "data": [{"smiles": "CN(c1ccc(Cl)cc1)c1cc[n+](Cc2cccc(C[n+]3ccc(N(C)c4ccc(Cl)cc4)cc3)c2)cc1", "values": [{"measurement": "toxicity IC50", "value": 17.5, "unit": "mg/kg"}]}]}
